Some entries share one result that the patent states for a list of compounds. Some ranges recur; such a range may be that of the whole group of compounds.
Each compound was assayed on Barnyard grass (Echinochloa crus-galli) (assay: Test Example 1: post-emergence herbicidal effect against paddy weeds). Details: active ingredient concentration 10 ppm; drop treatment in hydroponic medium; 30° C., full light; six days after treatment; compared to non-treatment group.
Assay type: in vivo

Compound	herbicidal effect against barnyard grass (score, degree of growth inhibition)
CCO/N=C(\N)c1ccc(S(=O)(=O)N(C)C)c(-c2nc(-c3ccccc3)sc2C)n1 [7-22]	3 (Score 3 70% to 89% herbicidal effect)
CCO/N=C(\N)c1ccc(S(C)(=O)=O)c(-c2nn(Cc3ccccc3)cc2C)n1 [10-17]	3 (Score 3 70% to 89% herbicidal effect)
CCO/N=C(\N)c1ccc(S(C)(=O)=O)c(-c2nn(-c3ccccc3F)cc2C)n1 [10-18]	3 (Score 3 70% to 89% herbicidal effect)
CCO/N=C(\N)c1ccc(S(=O)(=O)N(C)C)c(-c2nn(-c3ccccc3)cc2C)n1 [10-20]	3 (Score 3 70% to 89% herbicidal effect)
CCO/N=C(\N)c1ccc(S(=O)(=O)NC)c(-c2nc(-c3ccccc3)oc2C)n1 [12-2]	3 (Score 3 70% to 89% herbicidal effect)
CNS(=O)(=O)c1ccc(/C(N)=N/OC)cc1-c1nc(-c2ccccc2Cl)nn1C [17-1]	3 (Score 3 70% to 89% herbicidal effect)
CNS(=O)(=O)c1ccc(/C(N)=N/OC(C)C)cc1-c1nc(-c2ccccc2Cl)nn1C [17-3]	3 (Score 3 70% to 89% herbicidal effect)
CCO/N=C(\N)c1ccc(C(=O)OCC)c(-c2nc(-c3ccccc3)cs2)c1 [17-6]	3 (Score 3 70% to 89% herbicidal effect)
CCON=C(N)c1ccc(S(=O)(=O)NC)c(-n2nc(C)c(-c3ccccc3F)n2)n1 [20-20]	3 (Score 3 70% to 89% herbicidal effect)
CCON=C(N)c1ccc(S(C)(=O)=O)c(-n2nc(C)c(-c3ccccc3F)n2)n1 [20-62]	3 (Score 3 70% to 89% herbicidal effect)
CCON=C(N)c1ccc(S(=O)(=O)NC)c(-n2ncc(-c3ncccc3Cl)n2)n1 [20-66]	3 (Score 3 70% to 89% herbicidal effect)
CCON=C(N)c1ccc(S(=O)(=O)NC)c(-c2nc(-c3ccccc3)co2)n1 [21-2]	3 (Score 3 70% to 89% herbicidal effect)
CCO/N=C(\N)c1ccc(S(=O)(=O)NC)c(-c2nc(-c3ccccc3Cl)nn2C)n1 [Compound No. 1-1]	3 (Score 3 70% to 89% herbicidal effect)
CCO/N=C(\N)c1ccc(C(=O)OCC)c(-c2nc(-c3ccccc3C)cn2C)n1 [Compound No. 2-3]	3 (Score 3 70% to 89% herbicidal effect)
CCO/N=C(\N)c1ccc(C(=O)N(C)C)c(-c2nn(-c3ccccc3)c(=O)n2C)n1 [Compound No. 5-1]	3 (Score 3 70% to 89% herbicidal effect)

— patent publication US20250331521A1, “NITROGEN-CONTAINING HETEROCYCLIC COMPOUND HAVING AN OXIME GROUP, AGRICULTURAL OR HORTICULTURAL HERBICIDE COMPRISING THE COMPOUND, AND METHOD FOR USING THE COMPOUND OR THE HERBICIDE” (NIHON NOHYAKU CO., LTD., priority 2022, published 2025)
